Data published in the supplement of paper PMC10849652.
This is one part of the list.

Chains of the proteins cited; added tags and fusions are not shown. Lines headed by an entry give the natural chain unless they say otherwise; changes in a name come on top.
UniProt P35749, whole entry, looked up: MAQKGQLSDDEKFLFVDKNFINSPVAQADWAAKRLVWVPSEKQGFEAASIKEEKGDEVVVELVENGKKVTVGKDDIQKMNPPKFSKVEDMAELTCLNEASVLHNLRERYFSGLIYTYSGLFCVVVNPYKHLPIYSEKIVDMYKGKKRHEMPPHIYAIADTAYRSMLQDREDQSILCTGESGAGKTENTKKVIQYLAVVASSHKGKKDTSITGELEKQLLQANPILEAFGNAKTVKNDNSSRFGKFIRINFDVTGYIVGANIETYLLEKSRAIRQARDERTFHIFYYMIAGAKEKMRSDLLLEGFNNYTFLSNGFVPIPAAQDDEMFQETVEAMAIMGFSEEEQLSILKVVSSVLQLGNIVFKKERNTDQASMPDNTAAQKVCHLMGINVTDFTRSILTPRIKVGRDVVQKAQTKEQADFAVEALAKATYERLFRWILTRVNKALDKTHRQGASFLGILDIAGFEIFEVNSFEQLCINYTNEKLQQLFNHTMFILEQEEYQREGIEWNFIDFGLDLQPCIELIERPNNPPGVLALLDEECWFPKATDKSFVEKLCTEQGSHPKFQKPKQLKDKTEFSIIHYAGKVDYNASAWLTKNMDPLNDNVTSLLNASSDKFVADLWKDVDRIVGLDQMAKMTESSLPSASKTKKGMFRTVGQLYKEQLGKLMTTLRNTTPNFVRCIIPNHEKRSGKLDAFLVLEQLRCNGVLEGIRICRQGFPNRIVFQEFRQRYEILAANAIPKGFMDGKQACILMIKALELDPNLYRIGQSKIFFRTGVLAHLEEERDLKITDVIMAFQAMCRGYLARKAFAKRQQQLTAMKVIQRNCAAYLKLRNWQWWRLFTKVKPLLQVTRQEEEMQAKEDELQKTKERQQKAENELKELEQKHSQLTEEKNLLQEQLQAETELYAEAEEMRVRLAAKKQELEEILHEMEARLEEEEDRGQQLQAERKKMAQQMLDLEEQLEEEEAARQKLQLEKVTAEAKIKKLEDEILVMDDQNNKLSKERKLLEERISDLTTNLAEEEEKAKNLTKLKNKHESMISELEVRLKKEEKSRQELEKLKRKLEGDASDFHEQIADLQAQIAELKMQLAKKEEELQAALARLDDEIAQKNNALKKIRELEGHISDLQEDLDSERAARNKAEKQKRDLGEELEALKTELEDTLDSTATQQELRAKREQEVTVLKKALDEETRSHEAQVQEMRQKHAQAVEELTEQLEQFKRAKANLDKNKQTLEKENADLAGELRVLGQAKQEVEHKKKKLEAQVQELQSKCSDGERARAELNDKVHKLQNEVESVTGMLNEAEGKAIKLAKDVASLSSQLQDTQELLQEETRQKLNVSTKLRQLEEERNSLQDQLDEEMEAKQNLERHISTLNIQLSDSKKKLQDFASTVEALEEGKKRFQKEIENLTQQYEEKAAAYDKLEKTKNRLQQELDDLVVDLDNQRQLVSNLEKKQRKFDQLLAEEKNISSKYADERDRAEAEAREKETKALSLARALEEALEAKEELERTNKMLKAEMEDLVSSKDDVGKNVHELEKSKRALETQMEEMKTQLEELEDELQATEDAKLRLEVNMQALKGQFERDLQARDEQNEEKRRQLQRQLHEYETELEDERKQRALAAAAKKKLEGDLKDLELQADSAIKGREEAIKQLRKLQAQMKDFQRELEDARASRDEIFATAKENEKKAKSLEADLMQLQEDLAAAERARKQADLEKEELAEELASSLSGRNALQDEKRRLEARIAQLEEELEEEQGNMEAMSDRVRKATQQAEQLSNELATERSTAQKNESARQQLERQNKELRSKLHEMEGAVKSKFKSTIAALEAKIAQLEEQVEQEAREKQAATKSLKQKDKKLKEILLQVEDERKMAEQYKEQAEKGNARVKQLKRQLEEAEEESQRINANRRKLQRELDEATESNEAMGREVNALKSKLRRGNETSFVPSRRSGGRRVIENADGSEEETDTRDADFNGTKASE
UniProt Q9BPX3, whole entry, looked up: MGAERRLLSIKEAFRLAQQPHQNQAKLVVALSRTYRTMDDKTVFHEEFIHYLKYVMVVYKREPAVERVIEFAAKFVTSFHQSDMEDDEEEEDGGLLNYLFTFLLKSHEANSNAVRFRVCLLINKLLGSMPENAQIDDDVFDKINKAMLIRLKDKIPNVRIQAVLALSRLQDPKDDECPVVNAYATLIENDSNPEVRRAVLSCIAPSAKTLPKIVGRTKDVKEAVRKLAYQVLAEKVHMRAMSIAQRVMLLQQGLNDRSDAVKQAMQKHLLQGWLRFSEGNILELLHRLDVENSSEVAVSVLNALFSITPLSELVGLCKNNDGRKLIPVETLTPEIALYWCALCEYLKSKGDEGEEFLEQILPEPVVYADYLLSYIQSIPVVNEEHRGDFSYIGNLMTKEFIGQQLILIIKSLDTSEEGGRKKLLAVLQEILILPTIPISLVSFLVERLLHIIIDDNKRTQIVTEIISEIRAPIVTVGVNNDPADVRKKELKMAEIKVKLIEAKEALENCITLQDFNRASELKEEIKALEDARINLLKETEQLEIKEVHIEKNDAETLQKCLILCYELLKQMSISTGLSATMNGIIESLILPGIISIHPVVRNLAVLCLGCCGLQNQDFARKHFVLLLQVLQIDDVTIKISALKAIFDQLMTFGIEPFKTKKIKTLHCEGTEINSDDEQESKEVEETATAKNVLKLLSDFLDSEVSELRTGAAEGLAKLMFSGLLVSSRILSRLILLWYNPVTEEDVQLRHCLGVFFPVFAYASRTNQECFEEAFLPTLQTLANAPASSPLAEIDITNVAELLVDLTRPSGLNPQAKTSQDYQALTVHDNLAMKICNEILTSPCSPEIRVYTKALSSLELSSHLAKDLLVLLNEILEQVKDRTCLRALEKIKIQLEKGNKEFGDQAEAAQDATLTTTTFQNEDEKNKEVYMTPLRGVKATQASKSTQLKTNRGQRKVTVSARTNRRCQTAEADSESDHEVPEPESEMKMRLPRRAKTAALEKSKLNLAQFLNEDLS
UniProt P55160: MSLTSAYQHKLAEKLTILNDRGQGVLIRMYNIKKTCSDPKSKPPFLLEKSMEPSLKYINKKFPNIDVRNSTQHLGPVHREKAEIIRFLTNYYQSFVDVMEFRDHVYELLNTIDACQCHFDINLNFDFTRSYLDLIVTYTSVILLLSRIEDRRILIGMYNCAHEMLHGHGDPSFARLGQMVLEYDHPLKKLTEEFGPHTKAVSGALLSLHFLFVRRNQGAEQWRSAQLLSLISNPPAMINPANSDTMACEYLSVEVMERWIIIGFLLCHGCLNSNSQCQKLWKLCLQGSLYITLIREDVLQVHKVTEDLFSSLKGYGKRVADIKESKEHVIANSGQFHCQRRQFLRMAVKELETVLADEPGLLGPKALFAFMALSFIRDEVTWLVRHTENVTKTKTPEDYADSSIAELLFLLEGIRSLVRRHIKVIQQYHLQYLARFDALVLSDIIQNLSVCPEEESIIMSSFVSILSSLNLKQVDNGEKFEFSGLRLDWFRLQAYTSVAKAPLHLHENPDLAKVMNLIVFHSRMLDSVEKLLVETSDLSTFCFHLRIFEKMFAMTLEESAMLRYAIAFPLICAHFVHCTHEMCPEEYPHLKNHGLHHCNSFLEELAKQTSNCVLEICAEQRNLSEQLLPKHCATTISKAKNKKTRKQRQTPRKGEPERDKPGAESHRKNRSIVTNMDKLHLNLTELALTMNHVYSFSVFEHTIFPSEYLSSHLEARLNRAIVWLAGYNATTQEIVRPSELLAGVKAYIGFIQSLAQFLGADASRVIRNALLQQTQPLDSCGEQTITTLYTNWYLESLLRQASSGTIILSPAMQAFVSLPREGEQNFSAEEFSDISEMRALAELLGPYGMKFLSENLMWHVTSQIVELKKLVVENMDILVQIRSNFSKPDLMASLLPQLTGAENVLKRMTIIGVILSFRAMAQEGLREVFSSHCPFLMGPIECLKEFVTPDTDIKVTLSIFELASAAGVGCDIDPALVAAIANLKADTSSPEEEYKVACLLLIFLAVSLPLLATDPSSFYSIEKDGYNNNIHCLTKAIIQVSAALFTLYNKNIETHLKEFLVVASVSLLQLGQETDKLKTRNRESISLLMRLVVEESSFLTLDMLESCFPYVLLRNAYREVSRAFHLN
UniProt Q6IBW4: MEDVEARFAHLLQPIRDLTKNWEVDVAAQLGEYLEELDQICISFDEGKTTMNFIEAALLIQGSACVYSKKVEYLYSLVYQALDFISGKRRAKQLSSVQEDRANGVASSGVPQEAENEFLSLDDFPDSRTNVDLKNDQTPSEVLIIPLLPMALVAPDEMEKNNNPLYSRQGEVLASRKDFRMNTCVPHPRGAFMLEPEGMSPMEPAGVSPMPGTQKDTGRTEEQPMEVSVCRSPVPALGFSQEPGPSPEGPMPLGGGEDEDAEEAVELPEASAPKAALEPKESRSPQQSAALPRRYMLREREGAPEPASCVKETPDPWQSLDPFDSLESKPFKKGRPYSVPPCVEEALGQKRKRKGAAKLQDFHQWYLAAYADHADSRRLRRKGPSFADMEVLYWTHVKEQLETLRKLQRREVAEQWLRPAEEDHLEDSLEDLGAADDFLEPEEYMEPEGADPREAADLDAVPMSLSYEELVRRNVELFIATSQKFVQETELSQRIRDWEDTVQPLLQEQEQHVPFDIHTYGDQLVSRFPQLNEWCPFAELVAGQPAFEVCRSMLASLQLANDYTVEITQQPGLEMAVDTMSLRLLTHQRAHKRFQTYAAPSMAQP
UniProt Q8IW45: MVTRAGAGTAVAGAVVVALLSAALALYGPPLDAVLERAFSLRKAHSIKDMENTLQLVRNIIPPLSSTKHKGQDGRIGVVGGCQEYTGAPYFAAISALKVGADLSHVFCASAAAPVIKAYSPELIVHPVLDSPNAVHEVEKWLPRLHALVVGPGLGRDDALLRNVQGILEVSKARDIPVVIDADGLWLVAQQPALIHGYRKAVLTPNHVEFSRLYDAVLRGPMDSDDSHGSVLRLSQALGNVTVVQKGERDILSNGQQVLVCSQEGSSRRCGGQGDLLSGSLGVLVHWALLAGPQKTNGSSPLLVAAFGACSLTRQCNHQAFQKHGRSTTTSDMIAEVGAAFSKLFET
UniProt P14649: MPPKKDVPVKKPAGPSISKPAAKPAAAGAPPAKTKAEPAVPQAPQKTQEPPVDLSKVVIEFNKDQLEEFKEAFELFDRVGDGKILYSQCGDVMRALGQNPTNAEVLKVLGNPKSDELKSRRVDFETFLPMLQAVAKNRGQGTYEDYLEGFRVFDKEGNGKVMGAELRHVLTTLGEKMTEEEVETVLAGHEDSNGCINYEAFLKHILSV
UniProt P55209: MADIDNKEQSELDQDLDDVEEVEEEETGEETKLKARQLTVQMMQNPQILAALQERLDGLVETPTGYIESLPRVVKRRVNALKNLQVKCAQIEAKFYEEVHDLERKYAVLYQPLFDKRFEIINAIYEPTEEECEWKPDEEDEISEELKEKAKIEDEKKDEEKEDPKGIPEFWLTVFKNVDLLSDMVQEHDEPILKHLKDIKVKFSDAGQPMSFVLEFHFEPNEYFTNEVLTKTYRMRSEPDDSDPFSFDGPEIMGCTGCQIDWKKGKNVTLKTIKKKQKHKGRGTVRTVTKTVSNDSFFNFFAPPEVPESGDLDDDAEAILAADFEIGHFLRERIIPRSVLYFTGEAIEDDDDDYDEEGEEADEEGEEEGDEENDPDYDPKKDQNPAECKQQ
UniProt Q969V3: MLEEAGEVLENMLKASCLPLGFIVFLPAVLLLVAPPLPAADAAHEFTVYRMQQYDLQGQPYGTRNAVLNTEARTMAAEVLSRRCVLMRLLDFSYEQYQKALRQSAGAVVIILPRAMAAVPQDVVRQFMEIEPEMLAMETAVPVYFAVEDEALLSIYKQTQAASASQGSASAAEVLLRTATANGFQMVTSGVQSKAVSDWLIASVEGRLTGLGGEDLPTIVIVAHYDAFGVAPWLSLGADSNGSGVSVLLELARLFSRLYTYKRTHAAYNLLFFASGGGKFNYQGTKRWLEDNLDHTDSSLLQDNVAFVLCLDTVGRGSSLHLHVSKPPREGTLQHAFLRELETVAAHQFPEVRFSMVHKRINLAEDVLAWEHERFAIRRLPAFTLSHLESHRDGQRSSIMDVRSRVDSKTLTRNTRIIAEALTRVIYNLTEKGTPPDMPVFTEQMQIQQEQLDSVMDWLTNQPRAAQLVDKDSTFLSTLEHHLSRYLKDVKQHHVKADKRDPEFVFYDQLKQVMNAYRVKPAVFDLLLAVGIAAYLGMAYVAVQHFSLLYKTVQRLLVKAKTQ
UniProt P12829: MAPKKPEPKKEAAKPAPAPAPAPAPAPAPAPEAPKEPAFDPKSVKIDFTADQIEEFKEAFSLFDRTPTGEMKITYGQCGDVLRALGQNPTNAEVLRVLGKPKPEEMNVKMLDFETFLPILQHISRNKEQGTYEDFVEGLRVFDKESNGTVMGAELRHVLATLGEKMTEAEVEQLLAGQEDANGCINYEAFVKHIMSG
UniProt Q99417: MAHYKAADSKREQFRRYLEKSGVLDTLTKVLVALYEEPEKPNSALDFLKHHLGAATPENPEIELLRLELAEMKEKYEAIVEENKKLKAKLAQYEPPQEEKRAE

Columns and labels:
Assay in all cases: log2 fold change, soluble protein after heating vs DMSO (PISA); higher = thermal stabilisation; K562 lysate, 10 uM; active = over 0.2 and 3.5 SD of the protein, either way, in both replicates (recomputed)
erlotinib = compound: C#Cc1cccc(Nc2ncnc3cc(OCCOC)c(OCCOC)cc23)c1 [erlotinib]
In short: (§1)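 Dounce homogenisation of K562 pellets in PBS pH 7.4 with 1 mM MgCl2 produced a crude extract, used at 1 mg/mL protein. Exposure to 10 μM compound lasted 30 min, and aliquots were then heated for 3 min across 48°C-58°C, pooled and brought to 0.5% NP-40 at 4°C. The supernatant after 21,000xg for 90 min was quantified by TMTpro 16plex LC-MS/MS with channel sums equalised. Duplicate values are given as log-two fold change in thermal stability relative to solvent controls.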

[1] = compound: C/C(=N\NC(=O)C1=CC(=CC=C1)S(=O)(=O)N2CCOCC2)/C3=C(C=CC(=C3)Cl)O
In short: as §1

[2] = compound: C1=CC(=CC=C1C2=NC3=C(N2)C=C(C=C3)C(=O)N)OC4=CC=C(C=C4)Cl
In short: as §1

[3] = compound: C1=CC2=C(C=CC(=C2)/C=C\3/C(=O)NC(=NCC4=CC=CS4)S3)N=C1
In short: as §1

[4] = compound: C1=CC2=NC=CN=C2C=C1/C=C/3\C(=O)NC(=O)S3
In short: as §1

[5] = compound: C1=CC=C(C=C1)C2=NC(=C(N2)C3=CC=NC=C3)C4=CC(=C(C=C4)Cl)O
In short: as §1

[6] = compound: C1=CC=C2C(=C1)C3=NNC4=CC=CC(=C43)C2=O
In short: as §1

[7] = compound: C1CCN(C1)C(=O)NC2=CC=CC(=C2)NC3=NC=C(C(=N3)NCCC4=CN=CN4)Br
In short: as §1

[8] = compound: C1CN(CCC1(CC2=CC=C(C=C2)Cl)N)C3=NC=NC4=C3C=CN4
In short: as §1

IRAK-1-4 Inhibitor I = compound: C1COCCN1CCN2C3=CC=CC=C3N=C2NC(=O)C4=CC(=CC=C4)[N+](=O)[O-] [IRAK-1-4 Inhibitor I]
In short: as §1

Measured: log2 fold change

NCOA6 (UniProt Q14686)
inactive: erlotinib -0.037 | [1] 0.001 | [2] 0.033 | [3] -0.022 | [4] -0.058 | [5] 0.046 | [6] -0.013 | [7] -0.06 | [8] 0.023 | IRAK-1-4 Inhibitor I -0.056

NADSYN1 (UniProt Q6IA69)
inactive: erlotinib -0.015 | [1] -0.079 | [2] 0.032 | [3] 0.058 | [4] -0.005 | [5] 0.009 | [6] 0.007 | [7] -0.024 | [8] 0.015 | IRAK-1-4 Inhibitor I -0.02

NARS1 (UniProt O43776)
inactive: erlotinib -0.03 | [1] 0.019 | [2] 0.006 | [3] 0.011 | [4] -0.005 | [5] -0.014 | [6] -0.028 | [7] -0.001 | [8] -0.01 | IRAK-1-4 Inhibitor I -0.01

NAA15 (UniProt Q9BXJ9)
inactive: erlotinib -0.009 | [1] 0.033 | [2] -0.006 | [3] 0.005 | [4] -0.001 | [5] -0.043 | [6] 0 | [7] -0.007 | [8] -0.004 | IRAK-1-4 Inhibitor I -0.004

NCAPD3 (UniProt P42695)
inactive: erlotinib 0.023 | [1] 0.021 | [2] -0.012 | [3] 0.006 | [4] -0.003 | [5] 0.012 | [6] -0.043 | [7] -0.004 | [8] 0.042 | IRAK-1-4 Inhibitor I 0.03

NCOA1 (UniProt Q15788)
inactive: erlotinib 0.057 | [1] -0.011 | [2] 0.03 | [3] -0.072 | [4] -0.039 | [5] 0.027 | [6] 0.056 | [7] -0.016 | [8] -0.062 | IRAK-1-4 Inhibitor I 0.042

NCOA3 (UniProt Q9Y6Q9)
inactive: erlotinib 0.033 | [1] 0.001 | [2] -0.014 | [3] -0.07 | [4] -0.003 | [5] -0.038 | [6] -0.03 | [7] -0.02 | [8] 0.061 | IRAK-1-4 Inhibitor I 0.031

MYH11 isoform 2 (UniProt P35749)
inactive: erlotinib -0.015 | [1] 0.035 | [2] 0.027 | [3] -0.002 | [4] -0.092 | [5] 0.142 | [6] -0.038 | [7] -0.036 | [8] 0.047 | IRAK-1-4 Inhibitor I 0.013

NCSTN (UniProt Q92542)
inactive: erlotinib -0.03 | [1] -0.16 | [2] 0.02 | [3] -0.01 | [4] -0.034 | [5] -0.029 | [6] -0.042 | [7] -0.028 | [8] 0.038 | IRAK-1-4 Inhibitor I 0.037

NCAPG (UniProt Q9BPX3)
inactive: erlotinib -0.008 | [1] -0.018 | [2] -0.004 | [3] -0.01 | [4] -0.007 | [5] 0.006 | [6] -0.026 | [7] 0.002 | [8] 0.013 | IRAK-1-4 Inhibitor I -0.011

Retrieved one by one from the list above, two records:
NCOA1 (UniProt Q15788)
inactive: erlotinib 0.057 | [1] -0.011 | [2] 0.03 | [3] -0.072 | [4] -0.039 | [5] 0.027 | [6] 0.056 | [7] -0.016 | [8] -0.062 | IRAK-1-4 Inhibitor I 0.042

MYH11 isoform 2 (UniProt P35749)
inactive: erlotinib -0.015 | [1] 0.035 | [2] 0.027 | [3] -0.002 | [4] -0.092 | [5] 0.142 | [6] -0.038 | [7] -0.036 | [8] 0.047 | IRAK-1-4 Inhibitor I 0.013

Remaining list, next part.

NCKAP1L (UniProt P55160)
inactive: erlotinib 0.005 | [1] -0.06 | [2] -0.006 | [3] 0.196 | [4] 0.055 | [5] -0.032 | [6] -0.156 | [7] 0.06 | [8] 0.084 | IRAK-1-4 Inhibitor I 0.06

NAPA (UniProt P54920)
inactive: erlotinib -0.012 | [1] -0.018 | [2] 0.008 | [3] 0.011 | [4] 0.034 | [5] 0.042 | [6] 0.006 | [7] 0.011 | [8] 0 | IRAK-1-4 Inhibitor I -0.025

NAA25 (UniProt Q14CX7)
inactive: erlotinib 0.007 | [1] 0.016 | [2] 0.013 | [3] 0.006 | [4] 0.022 | [5] -0.014 | [6] -0.01 | [7] -0.012 | [8] 0.016 | IRAK-1-4 Inhibitor I 0

NCAPH2 (UniProt Q6IBW4)
inactive: erlotinib -0.031 | [1] -0.085 | [2] 0.011 | [3] -0.012 | [4] 0.026 | [5] 0 | [6] -0.005 | [7] -0.038 | [8] 0.042 | IRAK-1-4 Inhibitor I 0.009

NAXD (UniProt Q8IW45)
inactive: erlotinib 0.021 | [1] -0.037 | [2] 0.058 | [3] 0.106 | [4] 0.02 | [5] -0.03 | [6] -0.059 | [7] -0.003 | [8] 0.002 | IRAK-1-4 Inhibitor I -0.01

NAGLU (UniProt P54802)
inactive: erlotinib 0.006 | [1] 0.009 | [2] 0.064 | [3] 0.022 | [4] -0.003 | [5] -0.02 | [6] -0.02 | [7] 0.022 | [8] 0.004 | IRAK-1-4 Inhibitor I 0.011

MVD (UniProt P53602)
inactive: erlotinib 0.042 | [1] -0.036 | [2] 0.025 | [3] -0.021 | [4] -0.009 | [5] -0.008 | [6] -0.038 | [7] -0.008 | [8] 0.061

NCOA5 (UniProt Q9HCD5)
inactive: erlotinib -0.03 | [1] -0.036 | [2] 0.117 | [3] -0.021 | [4] -0.072 | [5] 0.068 | [6] -0.04 | [7] -0.034 | [8] -0.031 | IRAK-1-4 Inhibitor I 0.018

NCK1 (UniProt P16333)
inactive: erlotinib 0.02 | [1] 0.036 | [2] 0.04 | [3] -0.007 | [4] -0.01 | [5] -0.009 | [6] -0.072 | [7] -0.024 | [8] 0.049 | IRAK-1-4 Inhibitor I 0.002

MYL6B (UniProt P14649)
inactive: erlotinib -0.032 | [1] -0.036 | [2] -0.015 | [3] 0.042 | [4] 0.007 | [5] 0.012 | [6] -0.006 | [7] 0.02 | [8] 0.001 | IRAK-1-4 Inhibitor I 0.003

NAP1L1 (UniProt P55209)
inactive: erlotinib -0.013 | [1] -0.024 | [2] 0.02 | [3] 0.007 | [4] -0.04 | [5] 0.002 | [6] 0.007 | [7] -0.003 | [8] -0.008 | IRAK-1-4 Inhibitor I -0.005

NCOA4 isoform 4 (UniProt Q13772)
inactive: erlotinib 0.056 | [1] 0.02 | [2] -0.016 | [3] -0.123 | [4] 0.044 | [5] -0.023 | [6] -0.022 | [7] 0.004 | [8] -0.097 | IRAK-1-4 Inhibitor I 0.017

NAF1 (UniProt Q96HR8)
inactive: erlotinib -0.077 | [1] -0.005 | [2] 0.033 | [3] 0 | [4] -0.004 | [5] -0.12 | [6] 0.012 | [7] -0.004 | [8] 0 | IRAK-1-4 Inhibitor I 0.018

NCLN (UniProt Q969V3)
inactive: erlotinib 0.011 | [1] -0.014 | [2] -0.058 | [3] 0.003 | [4] -0.014 | [5] 0.007 | [6] -0.025 | [7] -0.01 | [8] 0.015 | IRAK-1-4 Inhibitor I 0.014

NCBP1 (UniProt Q09161)
inactive: erlotinib -0.017 | [1] 0.011 | [2] -0.017 | [3] 0.009 | [4] 0.001 | [5] -0.008 | [6] -0.013 | [7] -0.014 | [8] 0.002 | IRAK-1-4 Inhibitor I 0.009

MYL4 (UniProt P12829)
inactive: erlotinib 0.009 | [1] 0.011 | [2] 0.041 | [3] 0.037 | [4] -0.02 | [5] 0.018 | [6] 0.027 | [7] 0.029 | [8] 0.074 | IRAK-1-4 Inhibitor I 0.019

NANS (UniProt Q9NR45)
inactive: erlotinib -0.024 | [1] 0.007 | [2] -0.012 | [3] -0.019 | [4] 0.029 | [5] 0.003 | [6] 0.033 | [7] 0 | [8] -0.01 | IRAK-1-4 Inhibitor I -0.011

NAP1L5 (UniProt Q96NT1)
inactive: erlotinib -0.003 | [1] -0.023 | [2] 0.017 | [3] -0.014 | [4] -0.014 | [5] 0.084 | [6] -0.116 | [7] -0.057 | [8] 0 | IRAK-1-4 Inhibitor I -0.059

MYCBP (UniProt Q99417)
inactive: erlotinib 0.007 | [1] -0.001 | [2] 0.011 | [3] 0.007 | [4] 0 | [5] 0.019 | [6] 0 | [7] 0.024 | [8] 0.076 | IRAK-1-4 Inhibitor I 0.04

NASP (UniProt P49321)
inactive: erlotinib -0.017 | [1] 0.011 | [2] -0.001 | [3] 0.003 | [4] 0.009 | [5] 0.007 | [6] 0.022 | [7] 0.023 | [8] 0.003 | IRAK-1-4 Inhibitor I -0.009
